The target in this assay is β-arrestin-1 (mouse (endogenous in MPC5)) (UniProt Q8BWG8). Put plainly: co-IP; MPC5 mouse podocytes treated with SDF-1α for 5 min; cell lysates immunoprecipitated overnight at 4 °C with anti-CXCR4 or anti-β-arrestin-1 antibody and protein A/G plus agarose; washed with lysis buffer; immunoblotted for CXCR4, Src and β-arrestin-1. Background: In western blotting, separated proteins are transferred to a membrane and probed.

Sequences of proteins named here, by UniProt entry; tags and fusion partners are left off.
UniProt Q8BWG8: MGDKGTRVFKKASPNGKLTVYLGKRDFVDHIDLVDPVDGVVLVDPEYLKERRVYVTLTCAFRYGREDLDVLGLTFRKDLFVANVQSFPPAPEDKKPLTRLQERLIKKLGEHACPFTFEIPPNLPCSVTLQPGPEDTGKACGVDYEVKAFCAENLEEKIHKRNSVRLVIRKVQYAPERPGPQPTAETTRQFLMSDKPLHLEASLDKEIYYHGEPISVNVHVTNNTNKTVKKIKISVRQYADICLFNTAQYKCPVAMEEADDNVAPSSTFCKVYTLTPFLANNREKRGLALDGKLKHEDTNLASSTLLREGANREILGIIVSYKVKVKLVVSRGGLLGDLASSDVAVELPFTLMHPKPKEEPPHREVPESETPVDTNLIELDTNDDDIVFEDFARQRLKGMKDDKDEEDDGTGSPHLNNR
UniProt P70658: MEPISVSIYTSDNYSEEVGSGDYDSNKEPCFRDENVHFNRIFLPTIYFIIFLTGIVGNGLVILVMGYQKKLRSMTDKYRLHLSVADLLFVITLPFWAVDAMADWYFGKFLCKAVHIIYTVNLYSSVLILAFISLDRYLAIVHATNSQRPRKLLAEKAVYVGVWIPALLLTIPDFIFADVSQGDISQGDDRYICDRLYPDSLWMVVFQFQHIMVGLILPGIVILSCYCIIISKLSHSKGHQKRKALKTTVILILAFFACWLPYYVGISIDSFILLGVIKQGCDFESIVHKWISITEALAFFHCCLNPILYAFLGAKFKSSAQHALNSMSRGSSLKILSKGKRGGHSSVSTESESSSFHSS

Here are results for 1 substance from publication PMC8692909.

These are yes or no findings as the source states them, for the method shown. In cells and extracts the contact can be indirect. Some entries that bind do so weakly or less than the wild type.

As to “C-X-C chemokine receptor type 4 (from UniProt P70658 1-359)”, the binding result is listed as “binds”.
